Measurements taken from US8022203B2, “Amino derivatives of beta-homoandrostanes and beta-heteroandrostanes” (Sigma-Tau Industrie Farmaceutiche Riunite S.p.A., priority 2006, dated 2011).
Where a name gives a salt, the structure may show the parent alone.

Legend:
[1] = test system: hypertensive ouabain-sensitive rats (OS rats); experiment: Systolic blood pressure fall in hypertensive ouabain-sensitive rats (OS rats), tail-cuff; assay type: in vivo, rat; details: 10 μg/kg/day by mouth, four weeks
Description: The ability of these compounds to lower blood pressure was tested by using animal models with genetic arterial hypertension, in particular, spontaneous hypertensive rats of the Milan (MHS) (Bianchi G., Ferrari P., Barber B. The Milan Hypertensive strain. In Handbook of hypertension. Vol. 4: Experimental and genetic models of hypertension. Ed. W. de jong-Elsevier Science Publishers B.V., 1984:328-349) and rats made hypertensive by chronic infusion of ouabain, according to Ferrari P., et al. J. Pharm. Exp. Ther. 1998, 285, 83-94.
The procedure adopted to test the antihypertensive activity of the compounds on the above mentioned model was the following: systolic blood pressure (SBP) and heart rate (HR) were measured by an indirect tail-cuff method.
SBP and HR were measured weekly 6 hours after the treatment.

[2] = test system: spontaneous hypertensive rats of the Milan (MHS); experiment: Systolic blood pressure fall in spontaneous hypertensive rats (MHS), tail-cuff; assay type: in vivo, rat; details: five weeks, vs vehicle control

SMILES: CC12CCC3C(CCN(C=O)C4CC(=NOC5CCNC5)CCC34C)C1CCC2=O [I-ap, (E,Z) 3-[3-(R)-Pyrrolidinyl]oxyimino-6-aza-6-formyl-7a-homoandrostane-17-one hydrochloride]
- HR beats/min. [1]: 387 beats/min.

SMILES: CC12CCC3C(CC(=O)NC4CC(=NOCCN)CCC43C)C1CCC2=O (stereo not drawn) [I-aa, (E,Z) 3-(2-Aminoethoxyimino)-6-aza-7a-homoandrostane-7,17-dione hydrochloride]
- HR beats/min. [1]: 385 beats/min.
- HR % ([2]; 0.001 μg/kg/os daily): −5.0%
- HR beats/min. (variation of heart rate) ([2]; 0.001 μg/kg/os daily): −17.5 beats/min.
- HR % ([2]; 0.01 μg/kg/os daily): −4.8%
- HR beats/min. (variation of heart rate) ([2]; 0.01 μg/kg/os daily): −7.5 beats/min.
- HR % ([2]; 0.1 μg/kg/os daily): −4.8%
- HR beats/min. (variation of heart rate) ([2]; 0.1 μg/kg/os daily): −16.3 beats/min.
- HR % ([2]; 1 μg/kg/os daily): −3.6%
- HR beats/min. (variation of heart rate) ([2]; 1 μg/kg/os daily): −12.4 beats/min.
- HR % ([2]; 10 μg/kg/os daily): −2.1%
- HR beats/min. (variation of heart rate) ([2]; 10 μg/kg/os daily): −7.5 beats/min.

SMILES: CNCCCON=C1CCC2(C)C(C1)NC(=O)CC1C3CCC(=O)C3(C)CCC12 (stereo not drawn) [I-ac, (E,Z) 3-(3-N-Methylaminopropoxyimino)-6-aza-7a-homoandrostane-7,17-dione fumarate]
- HR % ([2]; 10 μg/kg/os daily): 0.0%
- HR beats/min. (variation of heart rate) ([2]; 10 μg/kg/os daily): 0.0 beats/min.

SMILES: C[C@]12CCC(=NOCCN)CC1C(=O)C[C@@H]1[C@@H]2CC[C@]2(C)C(=O)CC[C@@H]12.Cl (mixture of isomers) [Compd. 22b, (EZ) 3-(2-aminoethoxyimino)androstane-6,17-dione hydrochloride, reference compound]
- HR % ([2]; 10 μg/kg/os daily): −4.3%
- HR beats/min. (variation of heart rate) ([2]; 10 μg/kg/os daily): −15.8 beats/min.
- HR % ([2]; 100 μg/kg/os daily): −2.0%
- HR beats/min. (variation of heart rate) ([2]; 100 μg/kg/os daily): −7.2 beats/min.
